Measurements as given in PubChem BioAssay AID2685 (National Center for Advancing Translational Sciences (NCATS), 2010).
The other results are listed elsewhere or left out. These are further read-outs of the screen, such as a control signal, another cell line or another target. No call is given for them. The list favours compounds with an active or inconclusive main result. Words in brackets tell the shape of the fitted curve; partial curves, single points and poor fits give uncertain potencies.

Assay: qHTS Assay for Lipid Storage Modulators in Drosophila S3 Cells;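 as to cell number change: cells counted by Cell Tracker Red CMTPX staining in the red channel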
Conditions: BODIPY lipid droplet fluorescence, 18-24 h; for cell number change: measured here: cell count max response, cells fed with added oleic acid
Outline: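 Laser-scanning cytometry quantifies lipid droplet accumulation (500–530 nm total intensity; droplet/cell object ratio) in oleic acid-fed (400 uM added) Drosophila S3 cells treated with a concentration series. 20 uM Triacsin C defined 100% inhibition.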

[1] = measured here: cell number channel AC50, cells fed with added oleic acid
[2] = measured here: lipid fluorescence (Fed channel) AC50, cells fed with added oleic acid

Row | Structure (SMILES) | cell number change [%] | AC50 [1] | AC50 [2]
1 | O=C(NCc1ccccn1)C(=O)NCC(c1ccco1)N1CCOCC1 (configuration not stated) | -47.8 | 0.092 µM [falling, full curve, poor fit] | 0.92 µM [falling, full curve, poor fit]
2 | NC(=O)NC(CC(=O)N1CCc2ccccc2C1)c1ccc(Cl)cc1 (configuration not stated) | 1.61 | – | 9.2 µM [falling, partial curve]
3 | CCN1CCN(C(=S)Nc2ccc([N+](=O)[O-])cc2)CC1 | – | – | 0.651 µM [falling, full curve, poor fit]
4 | CC1CC(=O)c2cnc(Nc3ccccc3)nc2C1 (configuration not stated) | -1.84 | – | 29.1 µM [rising, single point]
5 | C=CCn1c(=S)[nH]c2cc(C(=O)N3CCN(c4ccccc4OC)CC3)ccc2c1=O | -7.72 | – | –
6 | c1ccc(CCNc2nc(-c3ccccn3)nc3ccccc23)cc1 | -68.8 | 16.4 µM [falling, single point] | 16.4 µM [falling, partial curve]
7 | Cc1ccc(S(=O)(=O)N(C)C)cc1NC(=O)c1sccc1Cl | 16.6 | – | 2.06 µM [rising, partial curve, poor fit]
8 | CCOC(=O)c1cnc2cc(-c3ccc(Br)cc3)nn2c1C | 23 | – | 1.84 µM [rising, partial curve, poor fit]
9 | CSC1=NCCN1C(=O)C12CC3CC(CC(C3)C1)C2 | – | – | 2.31 µM [falling, full curve]
10 | COc1ccc(CCNC(=O)CO/N=C/c2cc3c(cc2Br)OCO3)cc1OC | -5.19 | – | 0.13 µM [falling, full curve, poor fit]
11 | Cc1cccc(C(=O)Nc2cccc(C(=O)N/N=C/c3ccc4c(c3)OCO4)c2)c1 | -7.14 | – | –
12 | Cc1cc(C(=O)O)sc1C | -4.02 | – | –
13 | COc1ccc(C(=O)NNS(=O)(=O)c2ccccc2)cc1OC | 17.9 | – | 29.1 µM [rising, single point]
14 | CCCC(=O)NC(=S)Nc1ccccc1N1CCOCC1 | 7.21 | 6.51 µM [rising, single point] | 29.1 µM [falling, single point]
15 | COCCN(C(=O)CNC(=O)c1ccco1)C(C(=O)NC1CCCC1)c1ccc(F)cc1 (configuration not stated) | 6.67 | 0.0517 µM [rising, full curve] | –
16 | O=C(O)c1cc(N2C(=O)C3C4C=CC(C4)C3C2=O)ccc1NCc1cccnc1 (configuration not stated) | – | 0.731 µM [falling, single point] | –
17 | CC(C)[C@H](NC(=O)[C@H](Cc1ccccc1)n1c(=O)[nH]c2ccccc2c1=O)C(=O)N1CCC[C@@H]1C(=O)O | 1.94 | – | –
18 | CCOC(=O)N1CCN(C(=O)COC(=O)c2ccc(S(=O)(=O)N(CC)CC)cc2)CC1 | -0.628 | 0.184 µM [falling, full curve, poor fit] | 0.164 µM [falling, full curve]
19 | CCCn1c(/N=C/c2c[nH]c3ccccc23)nc2ccccc21 | -35.5 | – | 5.17 µM [rising, partial curve]
20 | CN(C)/C=C(\C#N)C(=O)N/N=C/c1ccc(F)cc1 | 20.2 | 0.731 µM [rising, full curve, poor fit] | 1.16 µM [rising, full curve, poor fit]

Row | Structure (SMILES) | cell number change [%] | AC50 [1] | AC50 [2]
21 | COc1ccccc1NC(=O)Cn1cc(C#N)c2ccccc21 | – | – | 2.06 µM [rising, partial curve]
22 | COc1ccc(-n2c(SCC(=O)N3CCN(c4ccccc4)CC3)nc3c(c2=O)SCC3)cc1 | -2.81 | – | 0.517 µM [rising, full curve]
23 | CSCC[C@H](NC(=O)Cc1c(C)c2cc3c4c(oc3cc2oc1=O)CCCC4)C(=O)O | 12.8 | – | 29.1 µM [falling, single point]
24 | COc1ccc(-n2c(SCC(=O)Nc3nc(C)cs3)nnc2-c2ccoc2C)cc1 | -39.7 | 0.731 µM [falling, full curve, poor fit] | 0.58 µM [falling, full curve, poor fit]
25 | CCCCn1c(N)c(N(CCC(C)C)C(=O)c2ccc(C)o2)c(=O)[nH]c1=O | -20.5 | – | 2.06 µM [falling, partial curve, poor fit]
26 | CCOc1ccc(S(=O)(=O)NCCC(=O)N2CCN(c3ccccc3O)CC2)cc1 | 30 | 0.291 µM [rising, single point] | –
27 | CC(=O)c1ccccc1OCC(O)Cn1ccnc1 (configuration not stated) | – | 1.46 µM [rising, partial curve] | 5.8 µM [rising, full curve]
28 | CN(C)C(=O)C(OC(=O)c1ccc2c(c1)CCCC2)c1ccccc1 (configuration not stated) | – | – | 0.82 µM [falling, full curve]
29 | COc1ccccc1CN1CC(C(=O)N2CCN(c3ccc(F)cc3)CC2)CC1=O (configuration not stated) | – | 1.84 µM [rising, single point] | –
30 | CC(NC(=O)C(=O)NCCCn1ccnc1)c1ccccc1 (configuration not stated) | 22 | – | 2.06 µM [rising, full curve, poor fit]
31 | Cc1cccc(CNc2ncnc3ccc(-c4ccc5c(c4)OCO5)cc23)c1 | 3.27 | – | 20.6 µM [falling, single point]
32 | CCOc1ccc2oc(C(=O)NCc3ccccc3CN3CCCC3)c(C)c2c1 | -34.5 | 16.4 µM [falling, partial curve] | 4.11 µM [falling, full curve, poor fit]
33 | COC(=O)c1c(NC(=O)CN2CCOCC2)sc2c1CCC(C)C2 (configuration not stated) | -17.8 | – | 0.82 µM [rising, single point]
34 | CC(C)CCOc1ccc(C(=O)N2CCCC2C(=O)O)cc1 (configuration not stated) | – | – | 2.06 µM [rising, partial curve, poor fit]
35 | CC1Cc2nc(SCC(=O)Nc3nc4ccccc4s3)n(C)c(=O)c2S1 (configuration not stated) | 6.65 | – | 6.51 µM [rising, single point]
36 | C/C(=N/NS(=O)(=O)c1ccc(F)cc1)c1ccc(NC(=O)c2ccc(C)o2)cc1 | 27.1 | – | –
37 | O=C(CC1NC(=O)NC1=O)NC1(C(=O)NC2CCCCC2)CCCCC1 (configuration not stated) | -11.9 | – | 7.31 µM [falling, single point]
38 | COc1cc(/C=N/NC(=O)C[n+]2ccccc2)cc(OC)c1OC | -11.4 | – | 1.03 µM [falling, full curve, poor fit]
39 | CCOc1ccc(N2C(=O)C3C(c4ccc(O)cc4)NC(CCSC)(C(=O)OC)C3C2=O)cc1 (configuration not stated) | -20.8 | – | 0.0058 µM [falling, full curve, poor fit]
40 | CCOc1ccc(CCNC(=O)CCc2nc(-c3ccc(OC)cc3)no2)cc1OCC | -61.2 | 4.61 µM [falling, full curve] | 18.4 µM [falling, partial curve]

Entries of single compounds, quoted from the list:
CN(C)C(=O)C(OC(=O)c1ccc2c(c1)CCCC2)c1ccccc1 (configuration not stated) is listed as AC50 [2]: 0.82 µM [falling, full curve]
CSC1=NCCN1C(=O)C12CC3CC(CC(C3)C1)C2 is listed as AC50 [2]: 2.31 µM [falling, full curve]
COc1ccc(-n2c(SCC(=O)Nc3nc(C)cs3)nnc2-c2ccoc2C)cc1 is listed as cell number change [%]: -39.7; AC50 [1]: 0.731 µM [falling, full curve, poor fit]; AC50 [2]: 0.58 µM [falling, full curve, poor fit]
C=CCn1c(=S)[nH]c2cc(C(=O)N3CCN(c4ccccc4OC)CC3)ccc2c1=O is listed as cell number change [%]: -7.72

More entries:

Row | Structure (SMILES) | cell number change [%] | AC50 [1] | AC50 [2]
41 | O=[N+]([O-])c1ccc2[nH]c3nc4ccccc4nc3c2c1 | 32.6 | 29.1 µM [rising, single point] | 6.51 µM [falling, single point]
42 | CCCOP(=O)(OCCC)c1c([N+](=O)[O-])cc(C(F)(F)F)cc1[N+](=O)[O-] | -11.3 | 6.51 µM [falling, single point] | 13 µM [falling, partial curve]
43 | Fc1ccc2[nH]c3c(N4CCN(Cc5ccc6c(c5)OCO6)CC4)ncnc3c2c1 | -44.1 | 7.31 µM [falling, partial curve, poor fit] | –
44 | O=C1COc2ccccc2N1Cc1c(F)cccc1Cl | 15.1 | – | 0.082 µM [rising, full curve, poor fit]
45 | Cc1ccc(N(C(=O)c2sc(C)nc2C)C(C(=O)NC(C)(C)C)c2ccncc2)cc1 (configuration not stated) | 2.15 | – | 0.411 µM [falling, single point]
46 | COc1cc(/C=C/C(=O)OCC(=O)NC2CC2)cc(S(=O)(=O)N2CCc3ccccc32)c1OC | 9.51 | – | –
47 | CC(C)(C)c1ccc(C(=O)NCC(=O)OCC(=O)Nc2ccc3c(c2)OCCO3)cc1 | 12.8 | – | –
48 | CCCCCn1c(=S)[nH]c2cc(C(=O)N3CCN(C(=O)OCC)CC3)ccc2c1=O | -1.9 | – | –
49 | S=c1[nH]nc(-c2cnccn2)n1-c1ccccc1 | 10.9 | – | 29.1 µM [rising, single point]
50 | CCN(C(=O)COC(=O)c1oc2ccc(OC)cc2c1C)C1CCCCC1 | -53.9 | 29.1 µM [falling, single point] | 29.1 µM [falling, single point]
51 | CCN1CCN(Cc2nc3cc(NC(=O)COc4ccc([N+](=O)[O-])cc4)ccc3n2C)CC1 | 41.3 | 29.1 µM [rising, single point] | –
52 | COc1ccc(-c2csc(NC(=O)Cc3ccccc3F)n2)c(OC)c1 | 19.2 | – | 5.17 µM [falling, single point]
53 | C=CCn1c(SCC(=O)N2CCN(c3ccc(F)cc3)CC2)nnc1-c1cccs1 | – | – | 4.11 µM [rising, partial curve]
54 | COc1ccc(CCC(C)NCCc2ccc(Cl)cc2Cl)cc1 (configuration not stated) | -48.4 | 16.4 µM [falling, single point] | –
55 | O=C(Nc1sc2c(c1C(=O)NCCO)CCCC2)c1ccco1 | -11.8 | – | 2.82 µM [falling, partial curve]
56 | Brc1ccc(Cn2c(-c3ccc(Br)o3)nc3ccccc32)o1 | -24.4 | – | 16.4 µM [rising, partial curve, poor fit]
57 | COc1cccc(CN2CCCC(N3CCc4ccccc4C3)C2)c1O (configuration not stated) | -4.95 | – | 6.51 µM [rising, partial curve]
58 | COc1ccc(OC)c(CNC(=O)C2CCN(S(=O)(=O)N3CCCCC3)CC2)c1 | -21.5 | – | –
59 | CC1(C)Cc2ccccc2-c2nnc(SCc3ccc(C#N)cc3)n21 | -12.7 | – | 0.0731 µM [rising, full curve, poor fit]
